These results are taken from PMC9890231.

No constants are given. Whether binding was seen depends on the method and setting. Some binding calls cover weakened binding; strength is not graded here.

The assay addresses T1, Brn1 (kleisin subunit of budding yeast condensin) (S. cerevisiae) (UniProt P38170).
T1 sequence: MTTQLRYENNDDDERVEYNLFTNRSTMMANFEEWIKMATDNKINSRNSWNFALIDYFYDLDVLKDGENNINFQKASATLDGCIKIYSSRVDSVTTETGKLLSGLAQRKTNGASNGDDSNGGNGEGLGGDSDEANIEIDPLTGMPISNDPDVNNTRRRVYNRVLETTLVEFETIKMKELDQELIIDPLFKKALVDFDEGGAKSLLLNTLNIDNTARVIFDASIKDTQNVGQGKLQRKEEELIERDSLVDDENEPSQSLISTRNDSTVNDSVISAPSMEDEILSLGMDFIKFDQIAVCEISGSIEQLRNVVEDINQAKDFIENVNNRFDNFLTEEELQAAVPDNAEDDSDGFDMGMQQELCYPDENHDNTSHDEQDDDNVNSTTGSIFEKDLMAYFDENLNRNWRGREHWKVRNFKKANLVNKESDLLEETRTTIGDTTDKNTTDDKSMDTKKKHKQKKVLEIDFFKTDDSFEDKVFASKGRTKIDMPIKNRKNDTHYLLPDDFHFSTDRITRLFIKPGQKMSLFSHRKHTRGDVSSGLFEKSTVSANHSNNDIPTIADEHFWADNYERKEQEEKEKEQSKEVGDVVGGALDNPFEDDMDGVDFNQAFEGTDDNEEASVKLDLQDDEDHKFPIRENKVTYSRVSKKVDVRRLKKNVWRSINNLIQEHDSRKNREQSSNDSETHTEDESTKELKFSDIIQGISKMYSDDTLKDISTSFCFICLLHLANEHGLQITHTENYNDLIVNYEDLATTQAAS
The assay can be described thus: tandem affinity co-purification (HisTrap, Strep-Tactin) + SEC; subunits co-overexpressed in S. cerevisiae; cleared lysate on HisTrap (Brn1-His12), eluted with imidazole; then Strep-Tactin resin (Smc4-StrepII3), eluted with desthiobiotin; then Superose 6; holo-complex and ∆Ycg1 tetramer.

B1: Ycg1 (HAWK subunit of budding yeast condensin) (protein, UniProt Q06680 1-1035)
chain: MQDPDGIDINTKIFNSVAEVFQKAQGSYAGHRKHIAVLKKIQSKAVEQGYEDAFNFWFDKLVTKILPLKKNEIIGDRIVKLVAAFIASLERELILAKKQNYKLTNDEEGIFSRFVDQFIRHVLRGVESPDKNVRFRVLQLLAVIMDNIGEIDESLFNLLILSLNKRIYDREPTVRIQAVFCLTKFQDEEQTEHLTELSDNEENFEATRTLVASIQNDPSAEVRRAAMLNLINDNNTRPYILERARDVNIVNRRLVYSRILKSMGRKCFDDIEPHIFDQLIEWGLEDRELSVRNACKRLIAHDWLNALDGDLIELLEKLDVSRSSVCVKAIEALFQSRPDILSKIKFPESIWKDFTVEIAFLFRAIYLYCLDNNITEMLEENFPEASKLSEHLNHYILLRYHHNDISNDSQSHFDYNTLEFIIEQLSIAAERYDYSDEVGRRSMLTVVRNMLALTTLSEPLIKIGIRVMKSLSINEKDFVTMAIEIINDIRDDDIEKQEQEEKIKSKKINRRNETSVDEEDENGTHNDEVNEDEEDDNISSFHSAVENLVQGNGNVSESDIINNLPPEKEASSATIVLCLTRSSYMLELVNTPLTENILIASLMDTLITPAVRNTAPNIRELGVKNLGLCCLLDVKLAIDNMYILGMCVSKGNASLKYIALQVIVDIFSVHGNTVVDGEGKVDSISLHKIFYKVLKNNGLPECQVIAAEGLCKLFLADVFTDDDLFETLVLSYFSPINSSNEALVQAFAFCIPVYCFSHPAHQQRMSRTAADILLRLCVLWDDLQSSVIPEVDREAMLKPNIIFQQLLFWTDPRNLVNQTGSTKKDTVQLTFLIDVLKIYAQIEKKEIKKMIITNINAIFLSSEQDYSTLKELLEYSDDIAENDNLDNVSKNALDKLRNNLNSLIEEINERSETQTKDENNTANDQYSSILGNSFNKSSNDTIEHAADITDGNNTELTKTTVNISAVDNTTEQSNSRKRTRSEAEQIDTSKNLENMSIQDTSTVAKNVSFVLPDEKSDAMSIDEEDKDSESFSEVC
For B1, the binding entry is recorded as “binds”.

B2: Smc4 (SMC subunit of budding yeast condensin) (protein, UniProt Q12267 1-1418)
chain: MSDSPLSKRQKRKSAQEPELSLDQGDAEEDSQVENRVNLSENTPEPDLPALEASYSKSYTPRKLVLSSGENRYAFSQPTNSTTTSLHVPNLQPPKTSSRGRDHKSYSQSPPRSPGRSPTRRLELLQLSPVKNSRVELQKIYDRHQSSSKQQSRLFINELVLENFKSYAGKQVVGPFHTSFSAVVGPNGSGKSNVIDSMLFVFGFRANKMRQDRLSDLIHKSEAFPSLQSCSVAVHFQYVIDESSGTSRIDEEKPGLIITRKAFKNNSSKYYINEKESSYTEVTKLLKNEGIDLDHKRFLILQGEVENIAQMKPKAEKESDDGLLEYLEDIIGTANYKPLIEERMGQIENLNEVCLEKENRFEIVDREKNSLESGKETALEFLEKEKQLTLLRSKLFQFKLLQSNSKLASTLEKISSSNKDLEDEKMKFQESLKKVDEIKAQRKEIKDRISSCSSKEKTLVLERRELEGTRVSLEERTKNLVSKMEKAEKTLKSTKHSISEAENMLEELRGQQTEHETEIKDLTQLLEKERSILDDIKLSLKDKTKNISAEIIRHEKELEPWDLQLQEKESQIQLAESELSLLEETQAKLKKNVETLEEKILAKKTHKQELQDLILDLKKKLNSLKDERSQGEKNFTSAHLKLKEMQKVLNAHRQRAMEARSSLSKAQNKSKVLTALSRLQKSGRINGFHGRLGDLGVIDDSFDVAISTACPRLDDVVVDTVECAQHCIDYLRKNKLGYARFILLDRLRQFNLQPISTPENVPRLFDLVKPKNPKFSNAFYSVLRDTLVAQNLKQANNVAYGKKRFRVVTVDGKLIDISGTMSGGGNHVAKGLMKLGTNQSDKVDDYTPEEVDKIERELSERENNFRVASDTVHEMEEELKKLRDHEPDLESQISKAEMEADSLASELTLAEQQVKEAEMAYVKAVSDKAQLNVVMKNLERLRGEYNDLQSETKTKKEKIKGLQDEIMKIGGIKLQMQNSKVESVCQKLDILVAKLKKVKSASKKSGGDVVKFQKLLQNSERDVELSSDELKVIEEQLKHTKLALAENDTNMNETLNLKVELKEQSEQLKEQMEDMEESINEFKSIEIEMKNKLEKLNSLLTYIKSEITQQEKGLNELSIRDVTHTLGMLDDNKMDSVKEDVKNNQELDQEYRSCETQDESEIKDAETSCDNYHPMNIDETSDEVSRGIPRLSEDELRELDVELIESKINELSYYVEETNVDIGVLEEYARRLAEFKRRKLDLNNAVQKRDEVKEQLGILKKKRFDEFMAGFNIISMTLKEMYQMITMGGNAELELVDSLDPFSEGVTFSVMPPKKSWRNITNLSGGEKTLSSLALVFALHKYKPTPLYVMDEIDAALDFRNVSIVANYIKERTKNAQFIVISLRNNMFELAQQLVGVYKRDNRTKSTTIKNIDILNRT
With B2, the binding result was “binds”.
